# Source: patent US20100234238A1, “METHOD FOR PROFILING KINASE INHIBITORS” (Janssen Pharmaceutica N V, priority 2006, published 2010)
# This continues a long series; more values of the same kind are listed elsewhere.
# System: tyrosine kinase activity in lysates prepared from cell lines
# Assay: PAMCHIP96 tyrosine peptide array profiling of lysates of 27 cell lines in absence or presence of MTKI
# Format: biochemical
# Conditions: 5 μM
# From the text: PAMGENE technology using the tyrosine peptide PAMCHIP96 allows the kinetic detection of the phosphorylation of 144 tyrosine peptides spotted onto a 3-dimensional porous well of a 96-well plate (www.pamgene.com). This technology can be used to measure the activity of purified kinases and the effects of kinase inhibitors thereon. Phosphotyrosine peptides are detected using a mix of fluorescently labeled anti-phosphotyrosine antibodies. Phosphorylation of peptides can be followed in real time due to the possibility of removing the reaction mix for a few seconds during the assay by a pumping mechanism to allow CCD camera detection of phosphopeptides bound to the fluorescent antibody. These consecutive datapoints (quantified spot images) generate a kinetic curve for each individual peptide, and allow for the calculation of initial velocities and endpoints associated with each individual peptide.
# Cells cultured in appropriate medium in T175 flasks, treated with compound if necessary, are harvested at 70-90% confluency.
# Media is removed, cells are washed with 10 ml ice cold PBS containing 0.1 mM NaVO4 and lysed in 1 ml of M-PER buffer (PIERCE) containing phosphatase and protease inhibitors (HALT, PIERCE). Cells are collected by scraping, and centrifuged for 10 minutes at 12 000×g. Supernatant lysates are filtered through a 0.2 micrometer filter (Anotop 0.2 μm anopore filter; Whatmann). Lysates are flash frozen in liquid nitrogen and stored at −80C.
# Just prior to the PAMCHIP experiment, total protein content is quantitated in the lysates and lysates are diluted to 1 mg/ml in a total volume of 200 μl, with M-PER phosphatase and protease inhibitors (HALT, PIERCE). 10 μg of total lysate (corresponding to 10 μl) will be used per well on the PAMCHIP96.
# To all 200 μl lysates 10 units of benzonase (Novagen) is added and lysates are further incubated for 30 min on ice and next centrifuged for 10 minutes at 12 000×g. The supernatant is then 1:1 diluted with compound or DMSO diluted to the appropriate concentration in water, and lysates are further incubated exactly 60 min on ice. Meanwhile, a PAMCHIP96 tyrosine peptide chip (PAMGENE) is blocked with 2% BSA (filtered through a 0.2 μm anopore filter; Whatmann) using the standard setting of a PAMSTATION96 (PAMGENE).
# The composition of the kinase buffer is as follows: 1×ABL buffer (NEB), 0.5 mg/ml BSA (from 10 mg/ml NEB stock), 100 μM ATP (dissolved and diluted in 1×ABL buffer), 5 μg/ml PY20-FITC (ExAlpha Biologicals, azide-free preparation). A twofold concentrated kinase buffer is prepared chilled on ice, DMSO or compound is added as appropriate, and the solution is added 1:1 to the (compound treated) ice cold lysates, and immediately applied to a tyrosine peptide PAMCHIP96. The assay is run on a PAMSTATION96 according to standard procedures: after loading of the plate, solution is pumped once onto the wells, a first exposure is read (150 mSec) and then a kinetic reading program (reading every 5 min for 150 mSec) is run for 60 min. Lysates are run in 6 technical replicates for each condition; replicates are always applied horizontally next to each other to avoid vertical strip effects of the chip.
# The data (spot images) are further quantified and linked to the peptide identities using EVOLVE PAMGRID software (PAMGENE). The quantified data are then fit to a curve using CurveFitHT software (PAMGENE) using the Vinip2 curve fitting algorithm, applied on the first 30 min of the assay; the initial velocity is derived at the first kinetic time point read. All subsequent data analyses were done on initial velocities (Vini) using the software packages Omniviz and R (Ihaka, R. and Gentlemen, R. (1996) R: a language for data analysis and graphics. J. Comput. Graph. Stat., 5, 299-314).
# After replacing the Vini's lower than 0.1 by 0.1, all Vini's were log 2-transformed to approach normality.
smiles,measurement,setting,value
"COc1cc2ncnc3c2cc1OCCCCCN(C)Cc1ccc(Br)cc1N3 [MTKI, 4,6-ethanediylidenepyrimido[4,5-b][6,1,12]benzoxadiazacyclopentadecine, 17-bromo-8,9,10,11,12,13,14,19-octahydro-20-methoxy-13-methyl-]",ratio of initial velocity of peptide phosphorylation,"H23 lysate, TYRO3_679_691_Y686",1.10
same,ratio of initial velocity of peptide phosphorylation,"H322 lysate, GSK3B_209_221_Y216",0.94
same,ratio of initial velocity of peptide phosphorylation,"H1650 lysate, CDK7_157_169_S164",0.82
same,ratio of initial velocity of peptide phosphorylation,"H1650 lysate, CREB1_122_134_Y134/S133",0.88
same,ratio of initial velocity of peptide phosphorylation,"H1650 lysate, DDR2_733_745_Y740",0.85
same,ratio of initial velocity of peptide phosphorylation,"H1650 lysate, ENOG_37_49_Y43",0.73
same,ratio of initial velocity of peptide phosphorylation,"H1650 lysate, GSK3B_209_221_Y216",0.79
same,ratio of initial velocity of peptide phosphorylation,"H1650 lysate, MK10_216_228_T221/Y223",0.69
same,ratio of initial velocity of peptide phosphorylation,"H1650 lysate, NCF1_313_325_S315/S320",0.92
same,ratio of initial velocity of peptide phosphorylation,"H1650 lysate, NPT2_501_513_T508",0.91
same,ratio of initial velocity of peptide phosphorylation,"H1650 lysate, PECA1_706_718_Y713",0.70
same,ratio of initial velocity of peptide phosphorylation,"H1650 lysate, PGFRB_768_780_Y771/Y775/Y778",0.32
same,ratio of initial velocity of peptide phosphorylation,"H1650 lysate, PLCG1_764_776_Y771",0.84
same,ratio of initial velocity of peptide phosphorylation,"H1650 lysate, PRRX2_202_214_Y214",0.91
same,ratio of initial velocity of peptide phosphorylation,"H1650 lysate, RASA1_453_465_Y460",0.98
same,ratio of initial velocity of peptide phosphorylation,"H1650 lysate, STAT2_683_695_Y690",0.85
same,ratio of initial velocity of peptide phosphorylation,"H1650 lysate, SYN1_2_14_S9",0.83
same,ratio of initial velocity of peptide phosphorylation,"H1650 lysate, TYRO3_679_691_Y686",0.90
same,ratio of initial velocity of peptide phosphorylation,"H2009 lysate, CDK7_157_169_S164",0.89
same,ratio of initial velocity of peptide phosphorylation,"H2009 lysate, CREB1_122_134_Y134/S133",0.97
same,ratio of initial velocity of peptide phosphorylation,"H2009 lysate, DDR2_733_745_Y740",0.95
same,ratio of initial velocity of peptide phosphorylation,"H2009 lysate, ENOG_37_49_Y43",0.81
same,ratio of initial velocity of peptide phosphorylation,"H2009 lysate, GSK3B_209_221_Y216",1.00
same,ratio of initial velocity of peptide phosphorylation,"H2009 lysate, MK10_216_228_T221/Y223",0.89
same,ratio of initial velocity of peptide phosphorylation,"H2009 lysate, NCF1_313_325_S315/S320",0.89
same,ratio of initial velocity of peptide phosphorylation,"H2009 lysate, NPT2_501_513_T508",0.76
same,ratio of initial velocity of peptide phosphorylation,"H2009 lysate, PECA1_706_718_Y713",0.79
same,ratio of initial velocity of peptide phosphorylation,"H2009 lysate, PGFRB_768_780_Y771/Y775/Y778",0.43
same,ratio of initial velocity of peptide phosphorylation,"H2009 lysate, PLCG1_764_776_Y771",0.81
same,ratio of initial velocity of peptide phosphorylation,"H2009 lysate, PRRX2_202_214_Y214",0.90
same,ratio of initial velocity of peptide phosphorylation,"H2009 lysate, RASA1_453_465_Y460",0.83
same,ratio of initial velocity of peptide phosphorylation,"H2009 lysate, STAT2_683_695_Y690",0.84
same,ratio of initial velocity of peptide phosphorylation,"H2009 lysate, SYN1_2_14_S9",0.93
same,ratio of initial velocity of peptide phosphorylation,"H2009 lysate, TYRO3_679_691_Y686",0.89
same,ratio of initial velocity of peptide phosphorylation,"H2122 lysate, GSK3B_209_221_Y216",0.84
same,ratio of initial velocity of peptide phosphorylation,"H3255 lysate, GSK3B_209_221_Y216",0.60
same,ratio of initial velocity of peptide phosphorylation,"HEK239 lysate, CDK7_157_169_S164",1.20
same,ratio of initial velocity of peptide phosphorylation,"HEK239 lysate, CREB1_122_134_Y134/S133",1.08
same,ratio of initial velocity of peptide phosphorylation,"HEK239 lysate, DDR2_733_745_Y740",1.00
same,ratio of initial velocity of peptide phosphorylation,"HEK239 lysate, ENOG_37_49_Y43",0.96
same,ratio of initial velocity of peptide phosphorylation,"HEK239 lysate, GSK3B_209_221_Y216",1.18
same,ratio of initial velocity of peptide phosphorylation,"HEK239 lysate, MK10_216_228_T221/Y223",0.75
same,ratio of initial velocity of peptide phosphorylation,"HEK239 lysate, NCF1_313_325_S315/S320",0.96
same,ratio of initial velocity of peptide phosphorylation,"HEK239 lysate, NPT2_501_513_T508",0.89
same,ratio of initial velocity of peptide phosphorylation,"HEK239 lysate, PECA1_706_718_Y713",1.00
same,ratio of initial velocity of peptide phosphorylation,"HEK239 lysate, PLCG1_764_776_Y771",1.02
same,ratio of initial velocity of peptide phosphorylation,"HEK239 lysate, PRRX2_202_214_Y214",1.30
same,ratio of initial velocity of peptide phosphorylation,"HEK239 lysate, RASA1_453_465_Y460",0.89
same,ratio of initial velocity of peptide phosphorylation,"HEK239 lysate, STAT2_683_695_Y690",1.03
same,ratio of initial velocity of peptide phosphorylation,"HEK239 lysate, SYN1_2_14_S9",0.92
same,ratio of initial velocity of peptide phosphorylation,"HEK239 lysate, TYRO3_679_691_Y686",0.93
same,ratio of initial velocity of peptide phosphorylation,"HT1373 lysate, CDK7_157_169_S164",1.10
same,ratio of initial velocity of peptide phosphorylation,"HT1373 lysate, CREB1_122_134_Y134/S133",0.95
same,ratio of initial velocity of peptide phosphorylation,"HT1373 lysate, DDR2_733_745_Y740",0.92
same,ratio of initial velocity of peptide phosphorylation,"HT1373 lysate, ENOG_37_49_Y43",0.87
same,ratio of initial velocity of peptide phosphorylation,"HT1373 lysate, GSK3B_209_221_Y216",0.97
same,ratio of initial velocity of peptide phosphorylation,"HT1373 lysate, MK10_216_228_T221/Y223",0.87
same,ratio of initial velocity of peptide phosphorylation,"HT1373 lysate, NCF1_313_325_S315/S320",1.02
same,ratio of initial velocity of peptide phosphorylation,"HT1373 lysate, NPT2_501_513_T508",1.00
same,ratio of initial velocity of peptide phosphorylation,"HT1373 lysate, PECA1_706_718_Y713",0.86
same,ratio of initial velocity of peptide phosphorylation,"HT1373 lysate, PLCG1_764_776_Y771",0.76
same,ratio of initial velocity of peptide phosphorylation,"HT1373 lysate, PRRX2_202_214_Y214",0.91
same,ratio of initial velocity of peptide phosphorylation,"HT1373 lysate, RASA1_453_465_Y460",0.78
same,ratio of initial velocity of peptide phosphorylation,"HT1373 lysate, STAT2_683_695_Y690",0.97
same,ratio of initial velocity of peptide phosphorylation,"HT1373 lysate, SYN1_2_14_S9",0.92
same,ratio of initial velocity of peptide phosphorylation,"HT1373 lysate, TYRO3_679_691_Y686",0.87
same,ratio of initial velocity of peptide phosphorylation,"MCF7 lysate, CDK7_157_169_S164",0.89
same,ratio of initial velocity of peptide phosphorylation,"MCF7 lysate, CREB1_122_134_Y134/S133",0.85
same,ratio of initial velocity of peptide phosphorylation,"MCF7 lysate, DDR2_733_745_Y740",1.15
same,ratio of initial velocity of peptide phosphorylation,"MCF7 lysate, ENOG_37_49_Y43",0.83
same,ratio of initial velocity of peptide phosphorylation,"MCF7 lysate, GSK3B_209_221_Y216",0.89
same,ratio of initial velocity of peptide phosphorylation,"MCF7 lysate, MK10_216_228_T221/Y223",1.03
same,ratio of initial velocity of peptide phosphorylation,"MCF7 lysate, NCF1_313_325_S315/S320",0.90
same,ratio of initial velocity of peptide phosphorylation,"MCF7 lysate, NPT2_501_513_T508",0.90
same,ratio of initial velocity of peptide phosphorylation,"MCF7 lysate, PECA1_706_718_Y713",0.74
same,ratio of initial velocity of peptide phosphorylation,"MCF7 lysate, PLCG1_764_776_Y771",0.78
same,ratio of initial velocity of peptide phosphorylation,"MCF7 lysate, PRRX2_202_214_Y214",0.90
same,ratio of initial velocity of peptide phosphorylation,"MCF7 lysate, RASA1_453_465_Y460",0.81
same,ratio of initial velocity of peptide phosphorylation,"MCF7 lysate, STAT2_683_695_Y690",0.91
same,ratio of initial velocity of peptide phosphorylation,"MCF7 lysate, SYN1_2_14_S9",0.92
